PubChem BioAssay AID588590 (National Center for Advancing Translational Sciences (NCATS), 2011)
Hit rate of the full screen: of about 390,000 compounds, about 4,000 (1%) were called active. The inconclusive results got no clear call from the source; some entries with a clear call stand among them for comparison. Calls follow the shape of the dose curve; as a rule, active = well fitted inhibition curve with a large enough effect; inconclusive = small, poorly fitted or top-dose-only effect, or another doubt; inactive = no such curve, though single readings can be large or run the other way. Where the call is inconclusive, the potency comes from a doubtful curve fit.

Sequences of proteins named here, by UniProt entry; tags and fusion partners are left off. A change or cut given only in a name is not applied to a line headed by its entry.
UniProt Q9UNA4: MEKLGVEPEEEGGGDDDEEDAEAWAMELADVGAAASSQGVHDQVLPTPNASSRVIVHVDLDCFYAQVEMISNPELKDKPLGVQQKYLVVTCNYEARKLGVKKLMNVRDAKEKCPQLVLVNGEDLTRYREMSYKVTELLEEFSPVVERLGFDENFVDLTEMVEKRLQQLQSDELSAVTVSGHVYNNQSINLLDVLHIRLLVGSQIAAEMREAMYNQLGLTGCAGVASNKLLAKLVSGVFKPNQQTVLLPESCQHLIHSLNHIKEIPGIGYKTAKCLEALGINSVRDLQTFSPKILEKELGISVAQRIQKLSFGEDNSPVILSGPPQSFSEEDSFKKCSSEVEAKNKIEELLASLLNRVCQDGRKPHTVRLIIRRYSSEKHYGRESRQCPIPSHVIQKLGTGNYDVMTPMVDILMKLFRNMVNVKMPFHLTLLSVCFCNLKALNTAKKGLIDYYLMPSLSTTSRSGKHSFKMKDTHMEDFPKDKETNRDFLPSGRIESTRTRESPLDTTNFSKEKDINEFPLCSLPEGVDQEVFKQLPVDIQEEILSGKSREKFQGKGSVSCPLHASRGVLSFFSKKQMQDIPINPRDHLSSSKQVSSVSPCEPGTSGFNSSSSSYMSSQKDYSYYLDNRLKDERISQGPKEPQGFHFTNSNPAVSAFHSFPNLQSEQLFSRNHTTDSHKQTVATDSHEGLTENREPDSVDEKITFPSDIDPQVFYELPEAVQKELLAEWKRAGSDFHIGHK

What follows are molecules tested against DNA polymerase iota (Homo sapiens) (UniProt Q9UNA4) (assay: qHTS for Inhibitors of Polymerase Iota). Conditions: Pol iota fluorescent replication assay, 10 min; series mostly up to 115 µM; activity, negative = inhibition: at the top concentration.
Method in brief: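 Fluorescent replication assay read twice, at 0 min and 10 min after adding 50 nM (final) substrate. Enzyme (10 nM) and compounds were first incubated 15 min at room temperature; enzyme-free buffer wells were negative controls.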
Potency is read from the fitted curve at half-maximal effect.

| SMILES | Potency | activity, negative = inhibition |
| --- | --- | --- |
| CCOc1ccc(N2C(=O)CC(NC3CCN(C(=O)c4ccc(F)cc4)CC3)C2=O)cc1 (stereo not drawn) | inconclusive: 89.1 µM [inhibitor, single point] | – |
| COc1ccc(-n2c(SC)nnc2-c2c[nH]c3ccccc23)cc1 | inconclusive: 7.94 µM [inhibitor, full curve, poor fit] | – |
| CN(C)S(=O)(=O)c1cccc(NC(=O)c2n[nH]c(=O)c3ccccc23)c1 | inconclusive: 20 µM [inhibitor, single point] | – |
| CCCC1OC2C[C@@H]3[C@H]4CCC5=CC(=O)C=C[C@]5(C)[C@H]4C(O)C[C@]3(C)[C@]2(C(=O)CO)O1 (stereo partly drawn) | – | inactive: -9.45% |
| N/C(=N\S(=O)(=O)c1cc(C(F)(F)F)cc(C(F)(F)F)c1)c1ccc(Cl)cc1 | inconclusive: 39.8 µM [inhibitor, single point] | – |
| COc1ccc(CNC(=O)CCC(=O)N2CCSc3ccccc32)cc1 | – | inactive: 7.75% |
| CC(=O)Nc1ccc(-c2cn3c(n2)SCC3)cc1 | inconclusive: 14.1 µM [inhibitor, partial curve] | – |
| Cc1nc(SCC(=O)NCc2ccco2)c2c3c(sc2n1)CCCC3 | – | inactive: 3.16% |
| O=C(O)c1c(Cl)nc2ccccn12 | inconclusive: 70.8 µM [inhibitor, partial curve] | – |
| CCCS(=O)(=O)c1ncc(Cl)c(C(=O)Nc2scc(-c3ccccc3)c2C(=O)OCC)n1 | inconclusive: 31.6 µM [inhibitor, single point] | – |
| O=C(CSc1nc(-c2ccccc2)cs1)NC(=O)NCc1ccco1 | inconclusive: 15.8 µM [inhibitor, full curve, poor fit] | – |
| CN(C)S(=O)(=O)c1ccc2nnn(OCC(=O)NC34CC5CC(CC(C5)C3)C4)c2c1 | inconclusive: 89.1 µM [inhibitor, partial curve, poor fit] | – |
| CC(C)CC(NC(=O)c1ccccc1)C(=O)N/N=C/c1ccco1 (stereo not drawn) | inconclusive: 126 µM [inhibitor, partial curve, poor fit] | – |
| Cc1cc(C)cc(N2CCn3c2nc2c3c(=O)n(Cc3ccc(Cl)cc3)c(=O)n2C)c1 | – | inactive: 8.22% |
| CCCC(=O)NCCc1cc2c(C)ccc(C)c2[nH]c1=O | inconclusive: 39.8 µM [inhibitor, single point] | – |
| CCOCCCNC(=O)/C(C#N)=C/c1ccc(C)o1 | – | inactive: 30.1% |
| CCc1ccc(/C=C/C(=O)c2cc(Br)ccc(=O)c2O)cc1 | inconclusive: 17.8 µM [inhibitor, full curve, poor fit] | – |
| CSc1nsc(SC)c1C(=O)Nc1ccc(C(C)(C)C)cc1 | inconclusive: 79.4 µM [inhibitor, partial curve, poor fit] | – |
| COc1ccc(N(CC(=O)NCCc2ccccc2)S(=O)(=O)c2ccccc2)c(OC)c1 | inconclusive: 89.1 µM [inhibitor, single point] | – |
| Nc1ncnc2c1nc(Sc1ccc(Cl)cc1)n2[C@H]1O[C@@H]2COP(=O)(O)O[C@H]2[C@@H]1O | – | inactive: -5.69% [at 58.9 µM] |
| O=C(C[N+]1(CCO)CCOCC1)c1ccc(F)c2ccccc12 | inconclusive: 89.1 µM [inhibitor, partial curve, poor fit] | – |

| SMILES | Potency | activity, negative = inhibition |
| --- | --- | --- |
| O=C(Nc1ccccc1Cl)/C(Cl)=C(\Cl)S(=O)c1ccccc1 (stereo not drawn) | active: 12.6 µM | – |
| O=C(C1Cc2ccccc2CN1C(=O)c1ccco1)N1CCN(c2ccccc2)CC1 (stereo not drawn) | inconclusive: 31.6 µM [inhibitor, partial curve] | – |
| CCOc1ccc(OCC)c(S(=O)(=O)N2CCN(c3cccc(C)c3C)CC2)c1 | – | inactive: 3.63% |
| Cc1ccc(CNC(=O)CSc2c3c(nc4cc(Cl)ccc24)CCCC3)o1 | inconclusive: 2.51 µM [inhibitor, full curve, poor fit] | – |
| CCOC(=O)c1[nH]nc(-c2c(O)cc(C)cc2O)c1-c1csc(C)n1 | inconclusive: 10 µM [inhibitor, partial curve] | – |
| Cc1cccc2c(N=Nc3ccc(S(=O)(=O)Nc4cccc(Cl)c4)cc3[N+](=O)[O-])c(O)[nH]c12 | – | inactive: -8.74% |
| O=C(O)c1cccc(NS(=O)(=O)c2ccc(-c3ccc(S(=O)(=O)Nc4cccc(C(=O)O)c4)cc3)cc2)c1 | inconclusive: 5.62 µM [inhibitor, full curve, poor fit] | – |
| CCn1c(SCC(=O)NCc2cccs2)nnc1-c1ccco1 | inconclusive: 22.4 µM [inhibitor, single point] | – |
| Cc1nnc(N/N=C/c2c[nH]c3ccccc23)[nH]c1=O | inconclusive: 3.98 µM [inhibitor, full curve] | – |
| COc1cc2nc(SCc3cccc(Cl)c3)n3nc(CCn4nc(C)cc4C)nc3c2cc1OC | inconclusive: 89.1 µM [inhibitor, single point] | – |
| Cc1noc(NS(=O)(=O)c2ccc(NC(=O)c3cnc4scc(C)n4c3=O)cc2)c1C | inconclusive: 3.16 µM [inhibitor, single point] | – |
| COc1ccc(-c2noc(CCC(=O)N3CCC(c4cc(C)ccc4C)CC3)n2)cc1 | inconclusive: 35.5 µM [inhibitor, single point] | – |
| CN(Cc1ccccc1)c1cc(Cl)nc(N)n1 | inconclusive: 1.78 µM [inhibitor, full curve, poor fit] | – |
| COc1ccccc1C(=O)Nc1nnc(SCC(=O)NCc2ccco2)s1 | inconclusive: 79.4 µM [inhibitor, partial curve, poor fit] | – |
| COc1cccc(-n2c(SCC(=O)NC3CCCCC3)nc3n[nH]c(C)c3c2=N)c1 | inconclusive: 3.16 µM [inhibitor, full curve, poor fit] | – |
| COCCNC(=O)CSc1nnc(NC(=O)C2CC(=O)N(c3ccccc3OC)C2)s1 (stereo not drawn) | inconclusive: 25.1 µM [inhibitor, partial curve, poor fit] | – |
| CCOc1ccc2nc(SCC(=O)NC(=O)NCc3ccco3)[nH]c2c1 | inconclusive: 56.2 µM [inhibitor, partial curve, poor fit] | – |
| O=C(NC1(Cc2ccccc2)CCN(Cc2ccc(-c3ccccc3)cc2)C1=O)c1ccccc1 (stereo not drawn) | inconclusive: 31.6 µM [inhibitor, partial curve, poor fit] | – |
| CC(C)COC(=O)c1cccc2c1-c1ccccc1/C2=N\O | inconclusive: 22.4 µM [inhibitor, partial curve, poor fit] | – |
| COc1ccc(NC(=O)CSc2nnc(-c3cccnc3)o2)c(OC)c1 | inconclusive: 25.1 µM [inhibitor, partial curve, poor fit] | – |
| CN1CCCC(n2nc(Cc3ccc(Cl)cc3)c3ccccc3c2=O)CC1 (stereo not drawn) | inconclusive: 31.6 µM [inhibitor, full curve] | – |

| SMILES | Potency | activity, negative = inhibition |
| --- | --- | --- |
| Cc1cc(C)nc(NC(=O)/C=C/c2ccccc2Cl)n1 | – | inactive: 22.7% |
| O=C(C[C@H]1C/C=C\CC[C@H](Cc2ccc(F)cc2)C(=O)O[C@H](c2ccccc2)CNC1=O)N[C@H](CO)Cc1ccccc1 | – | inactive: -7.31% |
| CCCSCCCNC(=O)c1ccc(Cn2c(=O)c3cccn3c3cccnc32)cc1 | – | inactive: 8.14% |
| COc1cc(NC(=O)CSc2nc3nc(C)c(Cc4ccc(C)cc4)c(C)n3n2)cc(OC)c1 | – | inactive: -13.6% |
| O=C(Nc1ccccc1)c1ccc(-c2ccccc2C(F)(F)F)o1 | inconclusive: 22.4 µM [inhibitor, single point] | – |
| O=C(O)CC/C(=N\Nc1ccc([N+](=O)[O-])cc1S(=O)(=O)N1CCOCC1)c1cccs1 | inconclusive: 56.2 µM [inhibitor, partial curve, poor fit] | – |
| CN1CCC2(CC1)Nc1nc(SCc3ccc(Cl)cc3)nn1C1=C2CN(C)CC1 | inconclusive: 79.4 µM [inhibitor, partial curve, poor fit] | – |
| CCOC(=O)N1CCC(Nc2cccc(SC)c2)CC1 | inconclusive: 35.5 µM [inhibitor, single point] | – |
| COc1ccc(S(=O)(=O)N2CCC(n3c(C(F)(F)F)nc4cccnc43)CC2)cc1OC | – | inactive: 15.3% |
| Cc1ccc(Cn2nnc(C(=O)Nc3ccc(F)c(F)c3)c2N)cc1 | inconclusive: 56.2 µM [inhibitor, partial curve, poor fit] | – |
| COc1cccc(N2CCN(C(=O)c3ccc(-c4ccccc4)cc3)CC2)c1 | inconclusive: 89.1 µM [inhibitor, single point] | – |
| O=C(CSc1nc(-c2ccccc2)no1)N1CCCCC1 | – | inactive: -9.95% |
| CC(C)[C@@H](COc1ccccc1)N1CCN(Cc2ccccc2)CCC1=O | inconclusive: 89.1 µM [inhibitor, single point] | – |
| Oc1ccccc1C1C=C(c2ccc3c(c2)OCO3)NC(c2ccc(Br)cc2)N1 (stereo not drawn) | inconclusive: 22.4 µM [inhibitor, single point] | – |
| CCc1ccc(-c2csc(NC(=O)C3CCCO3)c2C(=O)OC(C)C)cc1 (stereo not drawn) | inconclusive: 35.5 µM [inhibitor, single point] | – |
| CCOc1ccc(NC(=O)CN(C)C(=O)CCNC(=O)c2ccco2)cc1OCC | – | inactive: 9.6% |
| O=C(O)c1ccc(Cl)c(S(=O)(=O)N(Cc2ccccc2)c2ccc(Cl)cc2)c1 | inconclusive: 44.7 µM [inhibitor, partial curve] | – |
| COC(=O)c1ccc(NC(=O)CN2CCN(c3ccc(Cl)cc3)CC2)cc1 | inconclusive: 8.91 µM [inhibitor, full curve, poor fit] | – |
| C/C(=N\NC(=O)CN1CCN(c2ccc(F)cc2)CC1)c1ccco1 | inconclusive: 3.98 µM [inhibitor, partial curve, poor fit] | – |
| CCOc1ccc(Cn2nnc(C(=O)NCc3ccccc3)c2N)cc1 | inconclusive: 79.4 µM [inhibitor, partial curve, poor fit] | – |
| CC(C)=CCC12Oc3cc(O)ccc3C1(O)Oc1cc(O)c([C@H]3C=C(C)CC(c4ccc(O)cc4O)[C@H]3C(=O)c3ccc(O)cc3O)c(O)c1C2=O (stereo partly drawn) | inconclusive: 17.8 µM [inhibitor, full curve] | – |

By substructure, the entries above containing a nitro group on carbon (two)

| SMILES | Potency | activity, negative = inhibition |
| --- | --- | --- |
| Cc1cccc2c(N=Nc3ccc(S(=O)(=O)Nc4cccc(Cl)c4)cc3[N+](=O)[O-])c(O)[nH]c12 | – | inactive: -8.74% |
| O=C(O)CC/C(=N\Nc1ccc([N+](=O)[O-])cc1S(=O)(=O)N1CCOCC1)c1cccs1 | inconclusive: 56.2 µM [inhibitor, partial curve, poor fit] | – |
